According to PMC9964061:
Results are given in words; binding and its absence hold for the method and conditions named. For part of these data: Binding calls can cover weak binding; strength is not graded here.

T1: AtHsp90.5 (At2g04030), chloroplast-localized member of the HSP90 family (Arabidopsis thaliana) (UniProt Q9SIF2)
T1 sequence: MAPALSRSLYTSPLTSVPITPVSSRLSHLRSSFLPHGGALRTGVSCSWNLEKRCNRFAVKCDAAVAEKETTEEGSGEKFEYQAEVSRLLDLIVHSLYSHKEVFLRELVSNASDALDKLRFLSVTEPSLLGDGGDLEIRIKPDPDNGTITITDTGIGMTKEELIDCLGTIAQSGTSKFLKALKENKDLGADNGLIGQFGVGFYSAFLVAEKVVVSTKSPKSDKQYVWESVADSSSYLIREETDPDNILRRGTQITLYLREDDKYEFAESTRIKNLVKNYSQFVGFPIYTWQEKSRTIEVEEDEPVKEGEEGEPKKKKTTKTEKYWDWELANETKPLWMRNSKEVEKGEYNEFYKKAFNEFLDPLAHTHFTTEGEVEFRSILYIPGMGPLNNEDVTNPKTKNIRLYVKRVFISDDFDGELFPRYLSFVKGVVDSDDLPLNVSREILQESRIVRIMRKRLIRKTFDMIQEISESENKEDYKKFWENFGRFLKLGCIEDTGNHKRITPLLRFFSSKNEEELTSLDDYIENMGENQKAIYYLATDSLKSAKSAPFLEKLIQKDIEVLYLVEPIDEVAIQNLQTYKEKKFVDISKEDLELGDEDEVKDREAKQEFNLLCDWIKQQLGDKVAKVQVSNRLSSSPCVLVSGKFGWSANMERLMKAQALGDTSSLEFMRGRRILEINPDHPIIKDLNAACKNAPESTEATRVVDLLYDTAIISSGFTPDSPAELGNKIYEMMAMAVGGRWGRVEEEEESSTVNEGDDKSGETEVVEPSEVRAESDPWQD


Experiments:
Experiment in all cases: two-hybrid; reciprocal pairwise assays; full-length constructs in pDest-GBKT7 (strain Y2HGold) and pDest-GADT7 (strain Y187)
[1] = molecular target: T1, AtHsp90.5 (At2g04030), chloroplast-localized member of the HSP90 family (Arabidopsis thaliana)
[2] = molecular target: At1g36390 (CHLOROPLAST GRPE 2), full-length coding sequence (Arabidopsis thaliana)
[3] = molecular target: At5g17710 (CHLOROPLAST GRPE 1), full-length coding sequence (Arabidopsis thaliana)

| binding [1] | binding [2] | binding [3] | Molecule |
| --- | --- | --- | --- |
| no binding | – | – | At1g36390 (CHLOROPLAST GRPE 2), full-length coding sequence (Arabidopsis thaliana) |
| – | no binding | binds | AtHsp90.5 (At2g04030), chloroplast-localized member of the HSP90 family (protein, UniProt Q9SIF2 1-780) MAPALSRSLYTSPLTSVPITPVSSRLSHLRSSFLPHGGALRTGVSCSWNLEKRCNRFAVKCDAAVAEKETTEEGSGEKFEYQAEVSRLLDLIVHSLYSHKEVFLRELVSNASDALDKLRFLSVTEPSLLGDGGDLEIRIKPDPDNGTITITDTGIGMTKEELIDCLGTIAQSGTSKFLKALKENKDLGADNGLIGQFGVGFYSAFLVAEKVVVSTKSPKSDKQYVWESVADSSSYLIREETDPDNILRRGTQITLYLREDDKYEFAESTRIKNLVKNYSQFVGFPIYTWQEKSRTIEVEEDEPVKEGEEGEPKKKKTTKTEKYWDWELANETKPLWMRNSKEVEKGEYNEFYKKAFNEFLDPLAHTHFTTEGEVEFRSILYIPGMGPLNNEDVTNPKTKNIRLYVKRVFISDDFDGELFPRYLSFVKGVVDSDDLPLNVSREILQESRIVRIMRKRLIRKTFDMIQEISESENKEDYKKFWENFGRFLKLGCIEDTGNHKRITPLLRFFSSKNEEELTSLDDYIENMGENQKAIYYLATDSLKSAKSAPFLEKLIQKDIEVLYLVEPIDEVAIQNLQTYKEKKFVDISKEDLELGDEDEVKDREAKQEFNLLCDWIKQQLGDKVAKVQVSNRLSSSPCVLVSGKFGWSANMERLMKAQALGDTSSLEFMRGRRILEINPDHPIIKDLNAACKNAPESTEATRVVDLLYDTAIISSGFTPDSPAELGNKIYEMMAMAVGGRWGRVEEEEESSTVNEGDDKSGETEVVEPSEVRAESDPWQD |
